Drawing on publication doi:10.1101/2023.07.18.549521, this text covers binding for 1 substance.

The chains behind the UniProt entries cited, without tags or fusion partners.
UniProt O95166: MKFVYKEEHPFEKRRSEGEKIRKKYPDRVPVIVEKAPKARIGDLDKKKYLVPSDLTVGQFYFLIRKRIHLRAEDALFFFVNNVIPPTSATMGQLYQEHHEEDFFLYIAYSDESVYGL

For the experiment, the target named is T1, full-length tepsin-GST (residues 1-525) (UniProt Q96N21).
T1 sequence: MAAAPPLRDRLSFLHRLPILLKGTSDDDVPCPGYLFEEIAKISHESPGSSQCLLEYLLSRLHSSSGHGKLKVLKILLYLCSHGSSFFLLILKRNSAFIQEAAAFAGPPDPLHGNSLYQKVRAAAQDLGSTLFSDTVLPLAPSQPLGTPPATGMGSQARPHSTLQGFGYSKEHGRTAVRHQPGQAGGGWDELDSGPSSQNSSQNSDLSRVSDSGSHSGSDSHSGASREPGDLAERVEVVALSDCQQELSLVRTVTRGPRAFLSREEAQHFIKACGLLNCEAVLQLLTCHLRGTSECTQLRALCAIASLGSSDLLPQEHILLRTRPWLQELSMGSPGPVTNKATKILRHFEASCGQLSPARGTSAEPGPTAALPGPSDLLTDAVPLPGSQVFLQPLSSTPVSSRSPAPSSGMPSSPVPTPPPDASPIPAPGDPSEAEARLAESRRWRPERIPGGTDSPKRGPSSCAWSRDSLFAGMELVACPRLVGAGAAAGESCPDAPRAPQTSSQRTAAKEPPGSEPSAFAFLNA
The experiment in a line: pull-down.

These are yes or no findings as the source states them, for the method shown. Some binding calls cover weakened binding; strength is not graded here. Where a sequence is shown, tags or fusion partners need not be part of it.

Turning to “His6x-GABARAP (residues 1-117) (from UniProt O95166 1-117)”, the binding result is listed as “binds weakly”.
